According to the supplement of paper PMC8732350:
Structures can show the parent of a compound that is named as a salt. ± gives the standard deviation of the averaged measurements. The list shows a part of the results. Single values are uncertain here, since repeats match poorly.

These compounds were tested on A549 (assay: surface PD-L1 immunofluorescence intensity relative to IFN-gamma-only control (ratio); higher = more PD-L1 expression). Settings: 10 µM; exposure time 24 h; IFN-gamma 100 ng/mL.

Question: With `Oc1ccc([C@H]2COc3cc(O)ccc3C2)cc1` [Equol] as the compound, how does the “surface PD-L1 immunofluorescence intensity” value read?
Answer: 1.06

Question: With `Cc1ccc(Nc2c(F)cccc2Cl)c(CC(=O)O)c1` [Lumiracoxib (COX-189)] as the compound, how does the “surface PD-L1 immunofluorescence intensity” value read?
Answer: 1.02

Question: For `O=C(O)c1cc(O)c2c(c1)C(=O)c1cccc(O)c1C2=O` [Rhein (Monorhein)], which “surface PD-L1 immunofluorescence intensity” value is on record?
Answer: 1.09

Question: How did the “surface PD-L1 immunofluorescence intensity” value turn out when `N=C(N)NC(=N)Nc1ccccc1` [1-Phenylbiguanide hydrochloride] was run?
Answer: 1.09

Question: For `NCCNC(=O)c1ccc(Cl)cn1` [Lazabemide hydrochloride], which “surface PD-L1 immunofluorescence intensity” value is on record?
Answer: 1

Question: For `CN[C@@H]1[C@H](O[C@H]2[C@H](O[C@H]3[C@H](O)[C@@H](O)[C@H](N=C(N)N)[C@@H](O)[C@@H]3N=C(N)N)O[C@@H](C)[C@]2(O)C=O)O[C@@H](CO)[C@H](O)[C@H]1O` [Streptomycin sulfate], which “surface PD-L1 immunofluorescence intensity” value is on record?
Answer: 1.02 ± 0.039

Question: For `OCCOCCN1CCN(C2=Nc3ccccc3Sc3ccccc32)CC1` [Quetiapine hemifumarate], which “surface PD-L1 immunofluorescence intensity” value is on record?
Answer: 1.02

Question: How did the “surface PD-L1 immunofluorescence intensity” value turn out when `CC(C)N1Cc2cc(S(C)(=O)=O)ccc2N(CCN2CC=C(c3c[nH]c4cc(F)ccc34)CC2)S1(=O)=O` was run?
Answer: 1.04

Question: `CCC(=O)O[C@@H](O[P@](=O)(CCCCc1ccccc1)CC(=O)N1C[C@H](C2CCCCC2)C[C@H]1C(=O)O)C(C)C` [Fosinopril] was tested. Which “surface PD-L1 immunofluorescence intensity” value did it give?
Answer: 0.994

Question: For `CCC(=O)O[C@@H](O[P@](=O)(CCCCc1ccccc1)CC(=O)N1C[C@H](C2CCCCC2)C[C@H]1C(=O)O)C(C)C` [Fosinopril sodium (Monopril)], which “surface PD-L1 immunofluorescence intensity” value is on record?
Answer: 1.19

Question: `Cn1cnc2c(NCc3ccccc3)nc(NCCO)nc21` [Olomoucine] was tested. Which “surface PD-L1 immunofluorescence intensity” value did it give?
Answer: 0.97

Question: `Cc1cc(C(=O)NOCCO)c(Nc2ccc(I)cc2F)n(C)c1=O` was tested. Which “surface PD-L1 immunofluorescence intensity” value did it give?
Answer: 0.904

Question: For `CC1(C)S[C@@H]2[C@H](NC(=O)[C@H](N)c3ccc(O)cc3)C(=O)N2[C@H]1C(=O)O` [Amoxicillin], which “surface PD-L1 immunofluorescence intensity” value is on record?
Answer: 1.02

Question: With `CC1(C)S[C@@H]2[C@H](NC(=O)[C@H](N)c3ccc(O)cc3)C(=O)N2[C@H]1C(=O)O` [Amoxicillin (Amoxycillin)] as the compound, how does the “surface PD-L1 immunofluorescence intensity” value read?
Answer: 0.991

Question: Which “surface PD-L1 immunofluorescence intensity” value does the source give for `CC(=O)N(O)[C@@H]1c2cc(C#N)ccc2OC(C)(C)[C@H]1O` here?
Answer: 1.03

Question: For `O=C(CCc1ccc(O)cc1)c1c(O)cc(O)cc1O[C@@H]1O[C@H](CO)[C@@H](O)[C@H](O)[C@H]1O` [Phlorizin (Phloridzin)], which “surface PD-L1 immunofluorescence intensity” value is on record?
Answer: 0.84

Question: How did the “surface PD-L1 immunofluorescence intensity” value turn out when `Oc1ncnc2[nH]ncc12` [Allopurinol (Zyloprim)] was run?
Answer: 0.887

Question: How did the “surface PD-L1 immunofluorescence intensity” value turn out when `Oc1ncnc2[nH]ncc12` [Allopurinol] was run?
Answer: 1.01

Question: Which “surface PD-L1 immunofluorescence intensity” value does the source give for `CCCCCCC[N+](CC)(CC)CCCCc1ccc(Cl)cc1` [Clofilium tosylate] here?
Answer: 1.13

Question: How did the “surface PD-L1 immunofluorescence intensity” value turn out when `CNCCCC1c2ccccc2C=Cc2ccccc21` [Protriptyline hydrochloride] was run?
Answer: 0.961
